The list shows a part of the results. The data scatter; read single values as rough.

Protein sequences, listed by entry. Tags and fused reporters are not part of them. Lines headed by an entry give the natural chain unless they say otherwise; changes in a name come on top.
UniProt Q9Y4Z0: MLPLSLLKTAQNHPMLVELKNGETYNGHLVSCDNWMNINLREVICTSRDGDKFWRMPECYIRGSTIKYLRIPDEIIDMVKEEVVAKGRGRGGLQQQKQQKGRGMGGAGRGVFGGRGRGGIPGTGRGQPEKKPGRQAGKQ
UniProt Q9Y546: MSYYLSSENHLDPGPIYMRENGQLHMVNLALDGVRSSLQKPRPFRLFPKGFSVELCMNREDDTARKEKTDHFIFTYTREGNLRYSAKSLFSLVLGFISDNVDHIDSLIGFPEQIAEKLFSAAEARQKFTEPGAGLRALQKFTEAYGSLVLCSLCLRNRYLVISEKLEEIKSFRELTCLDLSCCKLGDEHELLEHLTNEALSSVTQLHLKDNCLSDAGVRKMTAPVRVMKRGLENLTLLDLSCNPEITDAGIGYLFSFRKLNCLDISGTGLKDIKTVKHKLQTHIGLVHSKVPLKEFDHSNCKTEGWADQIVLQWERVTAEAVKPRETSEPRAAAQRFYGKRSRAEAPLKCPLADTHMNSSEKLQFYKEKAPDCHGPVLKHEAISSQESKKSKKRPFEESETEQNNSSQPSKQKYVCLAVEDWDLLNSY
UniProt O60318: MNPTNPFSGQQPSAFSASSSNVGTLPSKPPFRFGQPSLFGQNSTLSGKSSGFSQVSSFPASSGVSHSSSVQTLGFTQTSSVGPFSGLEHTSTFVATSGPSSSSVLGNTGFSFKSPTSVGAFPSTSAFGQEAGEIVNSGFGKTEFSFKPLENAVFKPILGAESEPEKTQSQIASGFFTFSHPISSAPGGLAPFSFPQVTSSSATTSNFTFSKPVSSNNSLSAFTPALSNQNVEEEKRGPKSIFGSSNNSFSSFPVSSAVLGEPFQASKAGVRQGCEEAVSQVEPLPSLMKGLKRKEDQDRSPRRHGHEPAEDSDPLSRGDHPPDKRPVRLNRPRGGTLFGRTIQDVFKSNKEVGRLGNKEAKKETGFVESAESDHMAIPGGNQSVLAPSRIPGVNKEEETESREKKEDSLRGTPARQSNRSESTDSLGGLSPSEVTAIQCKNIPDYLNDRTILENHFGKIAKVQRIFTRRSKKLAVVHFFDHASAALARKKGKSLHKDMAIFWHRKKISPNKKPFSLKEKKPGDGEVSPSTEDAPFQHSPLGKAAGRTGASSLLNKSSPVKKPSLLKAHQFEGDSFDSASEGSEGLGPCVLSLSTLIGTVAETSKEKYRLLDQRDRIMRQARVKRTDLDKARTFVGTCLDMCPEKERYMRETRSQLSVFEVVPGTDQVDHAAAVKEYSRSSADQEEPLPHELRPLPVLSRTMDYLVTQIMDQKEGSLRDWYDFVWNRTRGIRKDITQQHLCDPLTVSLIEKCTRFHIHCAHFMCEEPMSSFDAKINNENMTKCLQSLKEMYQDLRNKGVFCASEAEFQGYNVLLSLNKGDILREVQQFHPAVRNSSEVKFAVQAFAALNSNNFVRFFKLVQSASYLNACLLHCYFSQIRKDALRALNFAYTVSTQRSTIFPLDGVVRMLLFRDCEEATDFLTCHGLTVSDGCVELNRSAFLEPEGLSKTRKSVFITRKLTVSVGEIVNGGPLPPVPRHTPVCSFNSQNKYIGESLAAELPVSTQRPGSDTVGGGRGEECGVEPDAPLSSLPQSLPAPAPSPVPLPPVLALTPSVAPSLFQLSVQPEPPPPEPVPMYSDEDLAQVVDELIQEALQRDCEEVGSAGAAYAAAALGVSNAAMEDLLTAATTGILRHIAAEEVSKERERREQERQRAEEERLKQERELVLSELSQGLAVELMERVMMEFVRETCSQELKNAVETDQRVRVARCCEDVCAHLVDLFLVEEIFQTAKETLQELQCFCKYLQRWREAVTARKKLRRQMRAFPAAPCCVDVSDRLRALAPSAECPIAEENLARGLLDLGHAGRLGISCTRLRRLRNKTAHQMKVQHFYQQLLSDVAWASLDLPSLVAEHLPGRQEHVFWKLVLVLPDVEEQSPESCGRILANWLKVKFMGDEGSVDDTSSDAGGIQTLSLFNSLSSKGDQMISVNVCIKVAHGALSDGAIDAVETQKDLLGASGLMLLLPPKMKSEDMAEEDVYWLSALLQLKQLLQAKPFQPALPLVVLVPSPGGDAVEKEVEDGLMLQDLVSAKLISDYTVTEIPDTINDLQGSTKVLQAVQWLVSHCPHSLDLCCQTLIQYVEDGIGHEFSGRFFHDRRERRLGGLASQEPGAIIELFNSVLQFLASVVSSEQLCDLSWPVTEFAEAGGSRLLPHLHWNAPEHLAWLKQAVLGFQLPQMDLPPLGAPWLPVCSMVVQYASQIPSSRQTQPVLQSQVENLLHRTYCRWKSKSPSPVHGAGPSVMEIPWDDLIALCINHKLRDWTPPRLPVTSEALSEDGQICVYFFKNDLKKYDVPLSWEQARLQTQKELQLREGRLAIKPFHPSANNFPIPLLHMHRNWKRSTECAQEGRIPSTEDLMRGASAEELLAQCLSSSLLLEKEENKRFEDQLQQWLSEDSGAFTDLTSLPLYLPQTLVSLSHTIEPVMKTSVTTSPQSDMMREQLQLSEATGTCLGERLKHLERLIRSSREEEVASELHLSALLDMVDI
UniProt Q9BTE3: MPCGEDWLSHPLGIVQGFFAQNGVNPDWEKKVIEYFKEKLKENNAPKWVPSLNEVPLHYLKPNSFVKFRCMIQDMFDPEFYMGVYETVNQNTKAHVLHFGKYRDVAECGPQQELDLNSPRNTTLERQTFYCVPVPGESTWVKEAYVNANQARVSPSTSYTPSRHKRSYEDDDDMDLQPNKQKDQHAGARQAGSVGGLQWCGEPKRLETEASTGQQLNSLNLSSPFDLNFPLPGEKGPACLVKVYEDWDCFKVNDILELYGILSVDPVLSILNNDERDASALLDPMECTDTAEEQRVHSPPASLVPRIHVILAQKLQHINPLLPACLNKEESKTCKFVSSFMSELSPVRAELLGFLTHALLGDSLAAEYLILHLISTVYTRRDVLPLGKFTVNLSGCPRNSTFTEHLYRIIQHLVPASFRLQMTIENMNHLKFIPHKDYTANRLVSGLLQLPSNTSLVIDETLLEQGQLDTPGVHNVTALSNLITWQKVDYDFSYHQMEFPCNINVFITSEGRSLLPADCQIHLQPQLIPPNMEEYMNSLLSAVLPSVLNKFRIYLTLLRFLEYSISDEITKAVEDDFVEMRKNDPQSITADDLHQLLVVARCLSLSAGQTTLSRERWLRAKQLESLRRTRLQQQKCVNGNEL
UniProt Q9BQ69: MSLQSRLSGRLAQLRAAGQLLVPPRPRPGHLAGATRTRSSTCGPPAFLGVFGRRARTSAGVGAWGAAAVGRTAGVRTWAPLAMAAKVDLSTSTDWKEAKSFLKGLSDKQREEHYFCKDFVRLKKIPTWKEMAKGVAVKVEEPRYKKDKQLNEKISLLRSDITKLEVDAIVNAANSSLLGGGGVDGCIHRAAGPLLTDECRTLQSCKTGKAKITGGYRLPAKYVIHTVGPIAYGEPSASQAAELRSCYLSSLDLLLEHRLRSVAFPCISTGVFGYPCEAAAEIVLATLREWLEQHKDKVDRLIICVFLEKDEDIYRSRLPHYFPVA
UniProt Q96AG4: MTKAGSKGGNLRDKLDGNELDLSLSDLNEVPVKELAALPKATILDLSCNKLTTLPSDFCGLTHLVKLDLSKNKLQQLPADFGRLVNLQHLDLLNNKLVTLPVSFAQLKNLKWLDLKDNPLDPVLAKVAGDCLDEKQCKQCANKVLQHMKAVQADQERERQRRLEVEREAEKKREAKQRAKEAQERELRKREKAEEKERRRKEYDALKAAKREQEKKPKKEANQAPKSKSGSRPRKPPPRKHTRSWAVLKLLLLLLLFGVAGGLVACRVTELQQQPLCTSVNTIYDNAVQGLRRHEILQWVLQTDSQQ
UniProt P07948: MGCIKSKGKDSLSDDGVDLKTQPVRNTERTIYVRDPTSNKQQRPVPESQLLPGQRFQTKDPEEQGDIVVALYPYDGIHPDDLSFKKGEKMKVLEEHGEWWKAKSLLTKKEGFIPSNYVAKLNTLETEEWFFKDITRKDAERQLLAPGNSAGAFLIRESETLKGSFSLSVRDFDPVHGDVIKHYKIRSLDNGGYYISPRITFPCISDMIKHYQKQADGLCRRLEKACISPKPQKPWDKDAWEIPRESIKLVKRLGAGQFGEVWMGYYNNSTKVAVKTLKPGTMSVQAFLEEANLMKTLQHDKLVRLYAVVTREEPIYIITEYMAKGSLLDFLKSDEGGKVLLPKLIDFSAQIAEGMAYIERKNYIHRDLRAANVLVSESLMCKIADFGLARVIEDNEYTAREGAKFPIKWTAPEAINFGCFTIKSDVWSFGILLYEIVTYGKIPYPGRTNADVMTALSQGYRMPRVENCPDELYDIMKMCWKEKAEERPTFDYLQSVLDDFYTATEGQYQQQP
UniProt O43318: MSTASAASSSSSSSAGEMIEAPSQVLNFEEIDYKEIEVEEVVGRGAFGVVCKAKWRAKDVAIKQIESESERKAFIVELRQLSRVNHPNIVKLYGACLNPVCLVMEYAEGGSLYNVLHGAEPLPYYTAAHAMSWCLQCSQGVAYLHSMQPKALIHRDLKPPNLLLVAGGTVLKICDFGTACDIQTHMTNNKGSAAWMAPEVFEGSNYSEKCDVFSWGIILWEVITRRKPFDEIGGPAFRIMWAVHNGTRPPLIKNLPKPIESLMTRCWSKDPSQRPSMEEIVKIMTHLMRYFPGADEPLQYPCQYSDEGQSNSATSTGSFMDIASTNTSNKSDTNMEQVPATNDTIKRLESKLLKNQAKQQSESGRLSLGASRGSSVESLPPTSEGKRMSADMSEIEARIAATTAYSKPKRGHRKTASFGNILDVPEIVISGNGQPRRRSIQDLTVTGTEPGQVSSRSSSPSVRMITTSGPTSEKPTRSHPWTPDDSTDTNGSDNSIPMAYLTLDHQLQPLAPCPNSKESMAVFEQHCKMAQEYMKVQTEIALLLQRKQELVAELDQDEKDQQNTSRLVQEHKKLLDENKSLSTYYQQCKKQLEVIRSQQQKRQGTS
UniProt Q9Y6R4: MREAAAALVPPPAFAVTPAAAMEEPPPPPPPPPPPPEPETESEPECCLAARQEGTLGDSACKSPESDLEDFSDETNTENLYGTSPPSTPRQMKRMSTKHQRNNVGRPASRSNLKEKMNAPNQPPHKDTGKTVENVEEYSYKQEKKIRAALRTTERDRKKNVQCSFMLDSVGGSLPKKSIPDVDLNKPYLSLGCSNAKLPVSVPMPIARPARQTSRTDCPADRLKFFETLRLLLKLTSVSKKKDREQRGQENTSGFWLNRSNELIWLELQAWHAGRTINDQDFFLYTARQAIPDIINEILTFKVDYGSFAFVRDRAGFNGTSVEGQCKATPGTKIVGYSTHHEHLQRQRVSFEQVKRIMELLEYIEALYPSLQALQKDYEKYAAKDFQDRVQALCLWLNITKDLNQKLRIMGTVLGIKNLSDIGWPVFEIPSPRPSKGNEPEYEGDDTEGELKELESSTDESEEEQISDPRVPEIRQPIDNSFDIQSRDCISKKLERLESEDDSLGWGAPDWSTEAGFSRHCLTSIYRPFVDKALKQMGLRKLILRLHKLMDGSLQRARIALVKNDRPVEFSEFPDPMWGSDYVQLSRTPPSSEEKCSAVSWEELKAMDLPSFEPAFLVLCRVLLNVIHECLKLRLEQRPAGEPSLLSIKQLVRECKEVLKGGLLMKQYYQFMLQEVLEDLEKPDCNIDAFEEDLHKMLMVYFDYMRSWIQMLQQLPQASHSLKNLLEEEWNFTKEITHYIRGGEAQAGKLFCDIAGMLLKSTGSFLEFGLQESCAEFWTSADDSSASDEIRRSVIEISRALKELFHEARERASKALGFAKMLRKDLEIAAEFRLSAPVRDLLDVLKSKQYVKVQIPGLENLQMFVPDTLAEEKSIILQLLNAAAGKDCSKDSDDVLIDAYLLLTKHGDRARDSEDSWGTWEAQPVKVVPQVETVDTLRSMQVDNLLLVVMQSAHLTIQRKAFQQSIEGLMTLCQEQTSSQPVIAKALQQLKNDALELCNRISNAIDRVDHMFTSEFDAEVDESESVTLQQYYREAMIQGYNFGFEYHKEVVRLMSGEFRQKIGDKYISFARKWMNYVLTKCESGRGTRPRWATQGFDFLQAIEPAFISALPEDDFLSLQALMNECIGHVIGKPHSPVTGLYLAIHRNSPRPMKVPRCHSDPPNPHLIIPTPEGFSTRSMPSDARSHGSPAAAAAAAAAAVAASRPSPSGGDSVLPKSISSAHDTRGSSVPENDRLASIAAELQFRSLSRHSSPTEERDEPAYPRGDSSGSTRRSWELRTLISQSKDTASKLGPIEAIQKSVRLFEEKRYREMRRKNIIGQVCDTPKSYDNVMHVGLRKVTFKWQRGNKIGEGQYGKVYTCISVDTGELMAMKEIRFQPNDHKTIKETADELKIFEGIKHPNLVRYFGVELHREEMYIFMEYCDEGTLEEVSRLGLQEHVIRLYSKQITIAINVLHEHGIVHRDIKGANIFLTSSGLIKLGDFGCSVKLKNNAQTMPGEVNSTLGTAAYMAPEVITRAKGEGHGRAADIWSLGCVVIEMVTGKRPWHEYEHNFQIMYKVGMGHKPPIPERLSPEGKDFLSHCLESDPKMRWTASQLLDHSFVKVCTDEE

Compound in one assay: ClCC(=O)N[C@H]1CCCc2ccccc12
Description: log2 mean competition ratio of IA-DTB cysteine labelling (DMSO/compound) (log2 ratio); higher = stronger cysteine engagement by compound. To be noted: 50 µM; treatment time: 4 h; cell line lysate: HEK293T. How it is done: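 IA-DTB competitive cysteine chemoproteomics in HEK293T RIPA lysate. Lysates were treated with compound 29 or 30 at 50 or 200 µM for 4 h, then IA-DTB (500 µM, 1 h), trypsin-digested, NeutrAvidin-enriched and analysed by diaPASEF. Competition ratio = intensity DMSO / intensity compound (n=4 treated, n=64 DMSO); binding: mean log2 CR ≥ 1 and p ≤ 0.05 plus QC filters. Target is the cysteine site.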
As to MACF1 C7344, the “log2 mean competition ratio” value was -0.483.
The same measure, in the same setting: the figure for LRPPRC C930 is -0.194; for LSM4 C45 (UniProt Q9Y4Z0) it is -0.047; for LRRC42 C301 (UniProt Q9Y546) it is -0.301.
With MCM3AP C1285 (UniProt O60318), the “log2 mean competition ratio” value is 0.31.
Consider MAGI1 C1065, for which the “log2 mean competition ratio” value is -0.0845.
Same read-out and setting: the figure for MAP2K1 C341 (UniProt Q02750) is -0.169.
Take MCMBP C325 (UniProt Q9BTE3): the “log2 mean competition ratio” value turned out to be 0.252.
For MCM3AP C274 (UniProt O60318), the “log2 mean competition ratio” value stood at 0.555.
For the target MACROD1 C199 (UniProt Q9BQ69), the “log2 mean competition ratio” value was 0.0265.
LRRC59 C131 (UniProt Q96AG4): the “log2 mean competition ratio” value is -0.249.
As for MAP9 C239, the “log2 mean competition ratio” value was -0.0704.
On to MAP3K20 C571 (UniProt Q9NYL2), for which the “log2 mean competition ratio” value was -0.19.
In the case of LYN C381 (UniProt P07948), the “log2 mean competition ratio” value was -0.282.
Take MAP3K7 C527 (UniProt O43318): the “log2 mean competition ratio” value is -0.0202.
Regarding MCM9 C106 (UniProt Q9NXL9), the “log2 mean competition ratio” value was -0.173.
On the same count and under the same terms, the figure for MAN2B2 C288 (UniProt Q9Y2E5) is 0.179.
For the target MAP4K5 C505 (UniProt Q9Y4K4), the “log2 mean competition ratio” value came out at 0.29.
Take MAP3K4 C1581 (UniProt Q9Y6R4): the “log2 mean competition ratio” value amounted to 0.11.
Regarding MATR3 C806 (UniProt P43243), the “log2 mean competition ratio” value was -0.0345.

The assay is the same for the next values; noted with them: 200 µM; treatment time: 4 h; cell line lysate: HEK293T.
With MACF1 C7344, the “log2 mean competition ratio” value is -0.293.
Take LRPPRC C930: the “log2 mean competition ratio” value is -0.29.
For the target LSM4 C45 (UniProt Q9Y4Z0), the “log2 mean competition ratio” value is 0.0988.
Regarding LRRC42 C301 (UniProt Q9Y546), the “log2 mean competition ratio” value is 0.0796.
MCM3AP C1285 (UniProt O60318): the “log2 mean competition ratio” value amounted to 0.0501.
In the case of MAGI1 C1065, the “log2 mean competition ratio” value was found to be 0.165.
Turning to MAP2K1 C341 (UniProt Q02750), the “log2 mean competition ratio” value was 0.328.
Consider MCMBP C325 (UniProt Q9BTE3), for which the “log2 mean competition ratio” value was 0.0259.
With MCM3AP C274 (UniProt O60318), the “log2 mean competition ratio” value was -0.031.
With MACROD1 C199 (UniProt Q9BQ69), the “log2 mean competition ratio” value was determined as 0.174.
For the target LRRC59 C131 (UniProt Q96AG4), the “log2 mean competition ratio” value worked out at 0.25.
Turning to MAP9 C239, the “log2 mean competition ratio” value was -0.148.
Turning to MAP3K20 C571 (UniProt Q9NYL2), the “log2 mean competition ratio” value stood at 0.408.
LYN C381 (UniProt P07948): the “log2 mean competition ratio” value was found to be 0.176.
Take MAP3K7 C527 (UniProt O43318): the “log2 mean competition ratio” value was 0.392.
On the same count and under the same terms, the same measure for MCM9 C106 (UniProt Q9NXL9): -0.00559; for MAN2B2 C288 (UniProt Q9Y2E5): -0.151; for MAP4K5 C505 (UniProt Q9Y4K4): 0.0219.
Consider MAP3K4 C1581 (UniProt Q9Y6R4), for which the “log2 mean competition ratio” value was determined as 0.127.
With MATR3 C806 (UniProt P43243), the “log2 mean competition ratio” value is -0.0531.

The values are drawn from the supplement of paper PMC11732987, “Enantioselective OTUD7B fragment discovery through chemoproteomics screening and high-throughput optimisation” (Communications Chemistry, 2025).
